# Data as given in PubChem BioAssay AID1224828 (NIAID, 2016).
# Test: 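Find genes required for NF-kappaB p65 moving into the nucleus after LPS in mouse macrophages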 (primary screen)
# System: mouse RAW264.7 G9 macrophage reporter cells (GFP-p65, Tnf promoter-mCherry)
# Reagent: siRNA pool against mouse genes, 100 nM
# Timing: 2 days siRNA transfection, then 40 min LPS before fixation
# Conditions: LPS (Salmonella minnesota R595) at 10 ng/ml
# Detection: 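Microscopy ratio of nuclear to perinuclear-ring GFP-p65 signal, scaled to the plate median; gene score is the average of two replicate robust z-scores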
# Scale: p65 translocation robust z-score: higher = more nuclear NF-kappaB p65 after LPS than the plate median; nuclear/cytoplasmic p65 ratio: higher = more nuclear NF-kappaB p65
# Active means: 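Called active when z exceeds 3.3 or falls under -1.56 (median of Tlr4 controls), giving activity score of at least 50; no calls for control wells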
# Calls: active = hit (p65 shift raised or lowered); inactive = no clear change
# In all, the deposit lists about 17,000 reagents; below is an unselected part. 762 of all reagents (4.5%) were called active. 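Active calls include both raised and lowered p65 entry, mostly lowered; wells with fewer than 50 cells lack a z-score.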 Raw values vary from plate to plate and are shown uncorrected. Reagents against one gene are numbered here.
target,reagent no.,p65 translocation robust z-score,"nuclear/cytoplasmic p65 ratio, rep 1","nuclear/cytoplasmic p65 ratio, rep 2",low cell count flag,activity call
Bbx,1,,1.31,1.42,fewer than 50 cells per well; well left out of scoring,inactive
Coxfa4,1,-2.47,1.38,1.17,enough cells to score,active
Wdr5b,1,1.42,1.87,1.63,enough cells to score,inactive
Pcyox1,1,-0.23,1.37,1.25,enough cells to score,inactive
Mpc2,1,-1.26,1.25,1.29,enough cells to score,inactive
Nnat,1,0.38,1.81,1.55,enough cells to score,inactive
Fam184b,1,1.52,1.55,1.74,enough cells to score,inactive
Nr1h5,1,3.14,2.3,1.9,enough cells to score,inactive
Npc1,1,,1.27,1.26,fewer than 50 cells per well; well left out of scoring,inactive
Tyro3,1,0.49,1.91,1.34,enough cells to score,inactive
Calhm6,1,2.26,1.73,1.78,enough cells to score,inactive
Rbm25,1,-0.01,1.45,1.41,enough cells to score,inactive
Rbm25,2,0.14,1.3,1.6,enough cells to score,inactive
Sgk2,1,-0.56,1.3,1.31,enough cells to score,inactive
Slc39a6,1,,1.41,1.5,fewer than 50 cells per well; well left out of scoring,inactive
Pkp1,1,0.2,1.44,1.51,enough cells to score,inactive
Or6ae1,1,,1.39,1.22,fewer than 50 cells per well; well left out of scoring,inactive
H2bc21,1,,1.08,1.36,fewer than 50 cells per well; well left out of scoring,inactive
Ctu1,1,-1.1,1.41,1.41,enough cells to score,inactive
Ahsp,1,2.69,1.97,1.85,enough cells to score,inactive
Nr1h4,1,0.61,1.54,1.49,enough cells to score,inactive
Zmym5,1,-0.24,1.45,1.45,enough cells to score,inactive
Or6c1b,1,,1.3,1.07,fewer than 50 cells per well; well left out of scoring,inactive
Itgb7,1,0.73,1.62,1.43,enough cells to score,inactive

Part of the list above in another layout:
{"target":"Coxfa4","reagent no.":1,"p65 translocation robust z-score":-2.47,"nuclear/cytoplasmic p65 ratio, rep 1":1.38,"nuclear/cytoplasmic p65 ratio, rep 2":1.17,"low cell count flag":"enough cells to score","activity call":"active"}
{"target":"Wdr5b","reagent no.":1,"p65 translocation robust z-score":1.42,"nuclear/cytoplasmic p65 ratio, rep 1":1.87,"nuclear/cytoplasmic p65 ratio, rep 2":1.63,"low cell count flag":"enough cells to score","activity call":"inactive"}
{"target":"Pcyox1","reagent no.":1,"p65 translocation robust z-score":-0.23,"nuclear/cytoplasmic p65 ratio, rep 1":1.37,"nuclear/cytoplasmic p65 ratio, rep 2":1.25,"low cell count flag":"enough cells to score","activity call":"inactive"}
{"target":"Mpc2","reagent no.":1,"p65 translocation robust z-score":-1.26,"nuclear/cytoplasmic p65 ratio, rep 1":1.25,"nuclear/cytoplasmic p65 ratio, rep 2":1.29,"low cell count flag":"enough cells to score","activity call":"inactive"}
